Results taken from PMC2734569, “Functional mapping of the fission yeast DNA polymerase δ B-subunit Cdc1 by site-directed and random pentapeptide insertion mutagenesis” (BMC Molecular Biology, 2009).
Residue numbers refer to the chain shown, from its start. These are yes or no findings as the source states them, for the method shown. Tags and fused reporters may be left off the sequences shown.

Experiments:
Test in all cases: two-hybrid; LexA-Cdc1 bait (pBTM116 or pBTM116BN) with Gal4-Pol3 prey and co-expressed c-myc-tagged Cdc27 (pAA-Cdc27) in S. cerevisiae CTY10-5d; ONPG liquid culture beta-galactosidase assay, mean of triplicates, as percent of wild-type Cdc1
Cdc1-J8 = biological target: T1, Cdc1-J8 (Schizosaccharomyces pombe, UniProt P87324 1-462, Lys-GlyValProLeuLys-Pro)
T1 construct: Cdc1, S. pombe, with a pentapeptide inserted after residue 83; also called J19; source: yeast two-hybrid fusion, in S. cerevisiae CTY10-5d
T1 sequence (looked up): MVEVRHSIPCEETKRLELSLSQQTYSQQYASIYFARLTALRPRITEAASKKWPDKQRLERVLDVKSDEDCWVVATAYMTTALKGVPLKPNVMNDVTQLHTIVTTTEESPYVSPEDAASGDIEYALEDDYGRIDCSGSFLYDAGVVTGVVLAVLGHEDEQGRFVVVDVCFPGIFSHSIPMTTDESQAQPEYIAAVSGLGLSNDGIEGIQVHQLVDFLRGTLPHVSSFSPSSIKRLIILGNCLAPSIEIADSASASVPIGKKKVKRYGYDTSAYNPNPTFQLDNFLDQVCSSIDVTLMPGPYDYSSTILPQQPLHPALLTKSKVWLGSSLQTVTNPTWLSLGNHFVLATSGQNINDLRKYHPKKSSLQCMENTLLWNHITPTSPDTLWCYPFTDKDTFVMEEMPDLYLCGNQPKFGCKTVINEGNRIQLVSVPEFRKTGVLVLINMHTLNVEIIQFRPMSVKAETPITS

Cdc1-J15 = biological target: T2, Cdc1-J15 (Schizosaccharomyces pombe, UniProt P87324 1-462, Gln-GlyValProLeuGln-Val)
T2 construct: Cdc1, S. pombe, with a pentapeptide inserted after residue 203; source: yeast two-hybrid fusion, in S. cerevisiae CTY10-5d
T2 sequence (looked up): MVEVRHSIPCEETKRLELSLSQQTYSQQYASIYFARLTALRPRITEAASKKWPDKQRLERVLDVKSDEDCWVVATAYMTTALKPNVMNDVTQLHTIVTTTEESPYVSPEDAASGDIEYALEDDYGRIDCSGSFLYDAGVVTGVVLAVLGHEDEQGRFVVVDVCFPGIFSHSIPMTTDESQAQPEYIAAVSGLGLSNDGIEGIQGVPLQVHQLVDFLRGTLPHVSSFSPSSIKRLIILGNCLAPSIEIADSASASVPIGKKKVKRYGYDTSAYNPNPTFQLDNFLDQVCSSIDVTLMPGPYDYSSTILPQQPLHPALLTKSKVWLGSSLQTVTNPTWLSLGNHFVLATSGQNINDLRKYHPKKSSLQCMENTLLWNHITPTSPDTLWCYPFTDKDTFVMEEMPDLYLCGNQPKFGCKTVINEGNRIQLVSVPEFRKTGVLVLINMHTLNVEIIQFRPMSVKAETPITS

Cdc1-A9 = biological target: T3, Cdc1-A9 (Schizosaccharomyces pombe, UniProt P87324 1-462, Pro292Ala | Gly293Ala)
T3 construct: Cdc1, S. pombe, double point mutant (A1 and A2 combined); source: yeast two-hybrid fusion, in S. cerevisiae CTY10-5d
T3 sequence (looked up): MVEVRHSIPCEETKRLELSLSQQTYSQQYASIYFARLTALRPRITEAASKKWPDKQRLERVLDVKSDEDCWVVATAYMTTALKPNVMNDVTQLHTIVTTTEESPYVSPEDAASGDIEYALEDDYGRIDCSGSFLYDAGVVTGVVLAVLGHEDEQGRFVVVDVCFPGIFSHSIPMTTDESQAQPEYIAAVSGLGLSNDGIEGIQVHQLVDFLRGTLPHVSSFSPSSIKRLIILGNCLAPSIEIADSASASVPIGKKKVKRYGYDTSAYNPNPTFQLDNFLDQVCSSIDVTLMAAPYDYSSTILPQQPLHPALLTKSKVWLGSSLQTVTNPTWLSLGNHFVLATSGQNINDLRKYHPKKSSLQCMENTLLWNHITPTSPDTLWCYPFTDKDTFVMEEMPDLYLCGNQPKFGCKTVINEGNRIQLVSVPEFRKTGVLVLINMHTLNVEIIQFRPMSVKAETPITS

Cdc1-A3 = biological target: T4, Cdc1-A3 (Schizosaccharomyces pombe, UniProt P87324 1-462, Asp296Ala)
T4 construct: Cdc1, S. pombe, point mutant; source: yeast two-hybrid fusion, in S. cerevisiae CTY10-5d
T4 sequence (looked up): T3 sequence (looked up) with A292P, A293G, D296A

Cdc1-E2 = biological target: T5, Cdc1-E2 (Schizosaccharomyces pombe, UniProt P87324 1-26)
T5 construct: Cdc1, S. pombe, truncated after amino acid 26 by a 16 nt insertion; residues coded by the 16 nt insertion before the stop codon (printed as GlyValProLysTer); source: yeast two-hybrid fusion, in S. cerevisiae CTY10-5d
T5 chain: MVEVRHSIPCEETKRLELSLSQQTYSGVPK

B1: Pol3 (fission yeast DNA polymerase delta catalytic subunit) (natural protein, Schizosaccharomyces pombe, UniProt P30316 1-1086, looked up)
chain: MTDRSSNEGVVLNKENYPFPRRNGSIHGEITDVKRRRLSERNGYGDKKGSSSKEKTSSFEDELAEYASQLDQDEIKSSKDQQWQRPALPAINPEKDDIYFQQIDSEEFTEGSVPSIRLFGVTDNGNSILVHVVGFLPYFYVKAPVGFRPEMLERFTQDLDATCNGGVIDHCIIEMKENLYGFQGNEKSPFIKIFTTNPRILSRARNVFERGEFNFEELFPVGVGVTTFESNTQYLLRFMIDCDVVGMNWIHLPASKYQFRYQNRVSNCQIEAWINYKDLISLPAEGQWSKMAPLRIMSFDIECAGRKGVFPDPSIDPVIQIASIVTQYGDSTPFVRNVFCVDTCSQIVGTQVYEFQNQAEMLSSWSKFVRDVDPDVLIGYNICNFDIPYLLDRAKSLRIHNFPLLGRIHNFFSVAKETTFSSKAYGTRESKTTSIPGRLQLDMLQVMQRDFKLRSYSLNAVCSQFLGEQKEDVHYSIITDLQNGTADSRRRLAIYCLKDAYLPQRLMDKLMCFVNYTEMARVTGVPFNFLLARGQQIKVISQLFRKALQHDLVVPNIRVNGTDEQYEGATVIEPIKGYYDTPIATLDFSSLYPSIMQAHNLCYTTLLDSNTAELLKLKQDVDYSVTPNGDYFVKPHVRKGLLPIILADLLNARKKAKADLKKETDPFKKAVLDGRQLALKVSANSVYGFTGATNGRLPCLAISSSVTSYGRQMIEKTKDVVEKRYRIENGYSHDAVVIYGDTDSVMVKFGVKTLPEAMKLGEEAANYVSDQFPNPIKLEFEKVYFPYLLISKKRYAGLFWTRTDTYDKMDSKGIETVRRDNCPLVSYVIDTALRKMLIDQDVEGAQLFTKKVISDLLQNKIDMSQLVITKALSKTDYAAKMAHVELAERMRKRDAGSAPAIGDRVAYVIIKGAQGDQFYMRSEDPIYVLENNIPIDAKYYLENQLSKPLLRIFEPILGEKASSLLHGDHTRTISMAAPSVGGIMKFAVKVETCLGCKAPIKKGKTALCENCLNRSAELYQRQVAQVNDLEVRFARLWTQCQRCQGSMHQDVICTSRDCPIFYMRIAEHKKLQQSVDLLKRFDEMSW
notes: DNA polymerase delta catalytic subunit Pol3, S. pombe; prey plasmid named pACT-Pol3 in the results and pGAD2F-Pol3 in the methods; also called Gal4-Pol3; pACT-Pol3; source: yeast two-hybrid fusion, in S. cerevisiae CTY10-5d
binding (Cdc1-J8): no binding (tested: <1% of wild type (Table 1)) | binding (Cdc1-J15): no binding (tested: 1% of wild type (Table 1); < 0.5% (text)) | binding (Cdc1-A9): no binding (tested: <1% of wild type) | binding (Cdc1-A3): no binding (tested: <1% of wild type) | binding (Cdc1-E2): no binding (tested: <1% of wild type (Table 1))
